Data source: PubChem BioAssay AID504786 (Drosophila RNAi Screening Center, 2011)
The deposit covers about 21,000 reagents; below is a random part of those that have a named target and a result. 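Primary screen; positive scores mean lost reporter signal, so the sign may be inverted from the usual convention.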 A slash parts repeat measurements. Names joined by + are all predicted targets of the reagent.

Screen: 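Knock-downs reducing HIF reporter induction by the iron chelator DFO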 (primary screen)
Cells: Drosophila S2 cells with a stable HIF luciferase reporter
Knock-down reagent: long dsRNA against Drosophila genes, about 0.2 µg dsRNA per well of a 384-well plate
Time to read-out: three days of knock-down, then 20 h of DFO before reading
Treatment: desferrioxamine (DFO) at 100 µM, an iron chelator that mimics hypoxia, for 20 h
Measured: 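HIF reporter luminescence in cells given 100 µM DFO for 20 h, using the mouse ldh-a hypoxia-response element, scored as per-plate z-scores; higher means greater loss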
Scale: z-score: higher = stronger loss of HIF reporter signal

predicted target | dsRNA | z-score, replicate 1 | z-score, replicate 2 | z-score, replicate 3 | z-score, replicate 4
por | DRSC20362 | -0.4 | -0.2 | – | –
Taf6 | DRSC11299 | 0.7 | 1 | – | –
RfC4 | DRSC08691 | -0.2 | -0.1 | – | –
Lectin-galC1 | DRSC03362 | -0.2 | -0.3 | – | –
CG8578 | DRSC20114 | -0.3 | -0.4 | – | –
CG9986 | DRSC16586 | -0.3 | 0.2 | – | –
CG31556 (retired record) | DRSC12122 | -0.3 | -1.1 | -0.4 | -0.2
Cfp1 | DRSC18128 | -0.3 | 0 | – | –
pav | DRSC08730 | -0.2 | 0.1 | – | –
CG12116 | DRSC17812 | -0.3 | -0.6 | – | –
krz | DRSC16979 | -0.4 | -0.5 | – | –
ssp7 | DRSC18878 | -0.3 | -0.1 | – | –
CG9445 | DRSC05006 | -0.3 | -0.1 | – | –
pip | DRSC11382 | -0.2 | -0.2 | – | –
Alp4 | DRSC14116 | 0 | -0.2 | – | –
CAH15 | DRSC04534 | -0.2 | -0.4 | – | –
MED30 | DRSC08516 | -0.1 | -0.1 | – | –
VhaPPA1-1 | DRSC16170 | -0.4 | -0.4 | – | –
CG31948 | DRSC00740 | 0 | 0.1 | – | –
CG30283 | DRSC04071 | -0.3 | -0.4 | – | –
Cpr72Ec | DRSC10449 | -0.3 | -0.4 | – | –
CG31683 + CG18858 | DRSC02703 | -0.3 | -0.2 | – | –
Pcyt2 | DRSC08531 | -0.3 | -0.2 | – | –
stv | DRSC09796 | -0.3 | 0 | – | –
stv | DRSC10111 | -0.1 | -0.5 | – | –
CG6059 | DRSC15958 | -0.4 | -0.5 | – | –
Or42b | DRSC04913 | -0.3 | 0.3 | – | –
Ptx1 | DRSC16804 | 0 | 0.4 | – | –
Prp18 | DRSC16802 | 0.4 | 0.8 | – | –
tra2 | DRSC07708 | -0.4 | -0.7 | – | –
CG5445 | DRSC19943 | 0.1 | 0.9 | – | –
LamC | DRSC07453 | -0.4 | -0.5 | – | –
CG15478 | DRSC18057 | -0.1 | 0 | – | –
CG6980 | DRSC16162 | -0.3 | -0.4 | – | –
Kdm4A | DRSC06586 | -0.4 | -0.5 | – | –
CG5446 | DRSC02862 | -0.4 | 3 | – | –
CG9213 | DRSC20170 | 0.7 | 0.8 | – | –
Mat89Ba | DRSC14540 | -0.1 | 1.1 | – | –
mRpS6 | DRSC08470 | 0.7 | 0.1 | – | –
Nmdar1 | DRSC12071 | -0.1 | 0 | – | –
Nmdar1 | DRSC12356 | -0.3 | -0.1 | – | –
Gapvd1 | DRSC19752 | -0.1 | -0.8 | – | –
tth | DRSC19435 | -0.4 | -0.6 | – | –
CG11350 | DRSC08181 | -0.4 | -1 | 2.4 | 0.4
rdgBbeta | DRSC07672 | -0.3 | -0.3 | – | –
eIF3i | DRSC03464 | 6.1 / 6.1 / 6.5 | 6.5 / 6.4 | – | –
RpL39 | DRSC04651 | 6 | 7 | – | –
CG17266 | DRSC04979 | -0.2 | -0.4 | – | –
Cpr65Av | DRSC09727 | -0.3 | -0.6 | – | –
CG10887 | DRSC14277 | -0.1 | -0.4 | – | –
barr | DRSC03488 | 0.5 | 1.7 | – | –
Snx3 | DRSC16027 | -0.1 | 0.2 | – | –
snoRNA:U31:54Ec + snoRNA:snR38:54Eb + snoRNA:U27:54Eb + 8 more | DRSC06458 | -0.1 | -0.3 | – | –
sordd2 + sordd1 | DRSC20136 | -0.4 | -0.3 | – | –
pasi2 | DRSC16380 | -0.4 | 0.3 | – | –
e(y)2b | DRSC12556 | -0.3 | -0.3 | – | –
crn | DRSC18184 | 6.3 | 4 | – | –
crn | DRSC18185 | 4.3 | 4 | – | –
crn | DRSC18755 | 4.7 | 3.9 | – | –
CG12147 | DRSC12192 | -0.2 | -0.2 | – | –
Nplp4 | DRSC00391 | 0.1 | -0.1 | – | –
IA-2 | DRSC00304 | -0.1 | 0 | -0.7 | -0.1
IA-2 | DRSC00652 | -0.2 | 0 | – | –
Vajk3 | DRSC01883 | -0.4 | 0 | – | –
CG8750 | DRSC11037 | 0.2 | 0.5 | – | –
Den1 | DRSC07195 | -0.2 | -0.3 | – | –
Nup50 | DRSC06827 | -0.4 | -0.7 | – | –
CG6974 | DRSC16160 | -0.2 | -0.3 | – | –
Socs36E | DRSC02455 | -0.2 | -0.4 | 0.9 | -0.1
CG13557 | DRSC04195 | -0.3 | -0.5 | – | –
CG32266 | DRSC08062 | -0.4 | -0.4 | – | –
CG30485 | DRSC06376 | -0.4 | -0.3 | – | –
Amt | DRSC16055 | -0.3 | -0.3 | – | –
CG8420 | DRSC16418 | -0.1 | 0.5 | – | –
mRpL55 | DRSC14764 | 1.4 | 1.6 | – | –
Rpt4 | DRSC18713 | 4.9 | 4.9 | – | –
Mfap1 | DRSC08154 | -0.2 | -0.4 | – | –
CG15124 | DRSC06546 | -0.3 | -0.2 | – | –
LysE | DRSC08675 | -0.4 | -0.3 | – | –
Hmr | DRSC17740 | -0.4 | -0.8 | – | –
CG13733 | DRSC10061 | -0.1 | -0.3 | – | –
Act42A | DRSC04835 | 0.4 | 0.7 | – | –
ArfGAP1 | DRSC11173 | 0 | 0 | – | –

Entries above whose target name starts with N or n (4):
predicted target | dsRNA | z-score, replicate 1 | z-score, replicate 2 | z-score, replicate 3 | z-score, replicate 4
Nmdar1 | DRSC12071 | -0.1 | 0 | – | –
Nmdar1 | DRSC12356 | -0.3 | -0.1 | – | –
Nplp4 | DRSC00391 | 0.1 | -0.1 | – | –
Nup50 | DRSC06827 | -0.4 | -0.7 | – | –
